Values from PubChem BioAssay AID1259293 (Sanger Institute, 2017)
Screen: 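Which silenced kinases act in synergy with BYL719, cetuximab or trametinib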 (follow-up of hits). Cells: human NCI-H716 colorectal cancer cells. Reagent: single siRNA against human genes. Treatment: anchor drugs BYL719 at 1 µM, cetuximab at 5 µg/ml or trametinib at 10 nM, or DMSO vehicle alone. Detection: 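For every anchor drug, viability versus control pool 2 (non-targeting) and a synergy score of drug with siRNA, each a replicate average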. Reading the numbers: synergy score with BYL719 and synergy score with cetuximab and synergy score with trametinib: higher = stronger synthetic lethal effect with drug; viability, siRNA alone in vehicle: higher = more cells survive knock-down. Rule for the call: 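An siRNA is active if its synergy score is above 0.10 for one or more of the three anchor drugs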. Calls: active = synergy with at least one drug; inactive = no synergy with any drug.
The whole screen tested 160 reagents; this is a random part of them. In the full data, 46 (29%) got an active call. 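The method behind the synergy score is not described; each call refers to one siRNA in a single cell line.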 Entries without a mark were called inactive. The numbers tell different reagents against one gene apart. No viability above 1 is reported: the scale is capped. The record does not give: the amount of reagent, the time to read-out.

Target gene	reagent	synergy score with BYL719	synergy score with cetuximab	synergy score with trametinib	viability, siRNA alone in vehicle (fraction of control)
CDKN2D (GeneID 1032)	1	-0.169	-0.328	-0.0365	0.519
CDKN2D (GeneID 1032)	2	0.06 (active)	-0.0275	0.157	0.454
CDKN2D (GeneID 1032)	3	0.0516 (active)	0.0462	0.239	1
CDKN2D (GeneID 1032)	4	0.0466	-0.0271	0.0219	0.649
GUCY2D (GeneID 3000)	1	-0.509	-0.173	-0.214	0.595
GUCY2D (GeneID 3000)	2	-0.157	-0.158	0.0701	0.454
GUCY2D (GeneID 3000)	3	-0.0374	-0.127	0.0208	0.269
GUCY2D (GeneID 3000)	4	-0.27	-0.208	-0.0196	0.715
IRAK3 (GeneID 11213)	1	-0.222	-0.0879	-0.227	0.508
IRAK3 (GeneID 11213)	2	-0.441	-0.107	-0.0478	0.682
IRAK3 (GeneID 11213)	3	-0.306	-0.223	-0.139	0.551
IRAK3 (GeneID 11213)	4	-0.0137	-0.335	-0.0695	0.682
SYNCRIP (GeneID 10492)	1	-0.179	-0.109	-0.303	1
SYNCRIP (GeneID 10492)	2	0.226 (active)	0.22	0.252	1
SYNCRIP (GeneID 10492)	3	-0.191	-0.394	-0.216	0.201
SYNCRIP (GeneID 10492)	4	-0.259	-0.317	-0.0196	0.715
BMPR2 (GeneID 659)	1	-0.166	-0.0408	-0.0745	1
BMPR2 (GeneID 659)	2	0.0625 (active)	-0.109	0.121	1
BMPR2 (GeneID 659)	3	-0.409	-0.227	-0.0672	0.584
BMPR2 (GeneID 659)	4	-0.145	-0.138	-0.134	0.867
PIK3CA (GeneID 5290)	1	0.0775	-0.248	-0.104	0.78
PIK3CA (GeneID 5290)	2	-0.127	-0.116	0.031	0.769
PIK3CA (GeneID 5290)	3	-0.165 (active)	-0.191	0.284	0.856
PIK3CA (GeneID 5290)	4	-0.179	-0.109	-0.281	1
MPP3 (GeneID 4356)	1	-0.157	-0.236	-0.0512	0.573
MPP3 (GeneID 4356)	2	0.00814 (active)	-0.109	0.252	1
MPP3 (GeneID 4356)	3	-0.179	-0.109	-0.248	1
MPP3 (GeneID 4356)	4	0.024	-0.339	0.0782	0.715
GRK5 (GeneID 2869)	1	-0.325	-0.266	-0.266	0.823
GRK5 (GeneID 2869)	2	-0.179	-0.109	0.0342	1
GRK5 (GeneID 2869)	3	-0.188	0.0127	0.0718	0.682
GRK5 (GeneID 2869)	4	0.167 (active)	-0.0362	0.194	0.932
NR2F2 (GeneID 7026)	1	-0.155	-0.109	-0.0962	1
NR2F2 (GeneID 7026)	2	-0.155	-0.109	-0.325	1
NR2F2 (GeneID 7026)	3	-0.381	-0.225	-0.347	0.671
NR2F2 (GeneID 7026)	4	-0.427	-0.4	-0.101	0.377
MAPKAPK2 (GeneID 9261)	1	0.182 (active)	-0.109	-0.303	1
MAPKAPK2 (GeneID 9261)	2	-0.179	-0.109	-0.469	1
MAPKAPK2 (GeneID 9261)	3	-0.0162 (active)	-0.0847	0.242	0.878
MAPKAPK2 (GeneID 9261)	4	-0.179	-0.109	0.0668	1
COASY (GeneID 80347)	1	0.222 (active)	-0.0114	-0.319	0.704
COASY (GeneID 80347)	2	-0.0993	-0.047	-0.0176	0.432
COASY (GeneID 80347)	3	-0.202 (active)	0.101	0.095	0.439
COASY (GeneID 80347)	4	0.151 (active)	-0.073	0.0443	0.671
HSPB8 (GeneID 26353)	1	0.0538	-0.13	-0.0661	0.791
HSPB8 (GeneID 26353)	2	-0.122	-0.0735	-0.146	1
HSPB8 (GeneID 26353)	3	-0.179 (active)	0.101	-0.401	1
HSPB8 (GeneID 26353)	4	-0.256	0.00528	-0.00567	0.638
ACVR1 (GeneID 90)	1	-0.294	-0.0529	-0.0866	0.486
ACVR1 (GeneID 90)	2	-0.371	-0.33	-0.137	0.432
ACVR1 (GeneID 90)	3	-0.36	-0.305	-0.235	0.78
ACVR1 (GeneID 90)	4	-0.127	-0.0418	-0.122	0.584
SYK (GeneID 6850)	1	0.00768	0.0897	0.0776	1
SYK (GeneID 6850)	2	-0.179	0.0136	0.0124	1
SYK (GeneID 6850)	3	0.0275	-0.111	0.0219	0.997
SYK (GeneID 6850)	4	-0.516	-0.182	-0.149	0.573
MARK3 (GeneID 4140)	1	-0.179	-0.109	0.0124	1
MARK3 (GeneID 4140)	2	-0.0468 (active)	-0.0834	0.225	0.867
MARK3 (GeneID 4140)	3	-0.193	-0.263	-0.0255	0.715
MARK3 (GeneID 4140)	4	-0.612	-0.461	-0.077	0.443
CHD4 (GeneID 1108)	1	-0.206	-0.252	-0.0343	0.421
CHD4 (GeneID 1108)	2	0.0607	-0.0669	-0.00744	0.348
CHD4 (GeneID 1108)	3	-0.333	-0.322	-0.21	0.704
CHD4 (GeneID 1108)	4	-0.111	0.0897	-0.0419	1
CRIM1 (GeneID 51232)	1	-0.262	-0.199	0.00242	0.899
CRIM1 (GeneID 51232)	2	-0.0544	-0.273	-0.00401	0.606
CRIM1 (GeneID 51232)	3	-0.261	-0.391	-0.0391	0.473
CRIM1 (GeneID 51232)	4	0.0809	-0.0238	-0.178	0.519
IRAK1 (GeneID 3654)	1	-0.111	-0.109	-0.469	1
IRAK1 (GeneID 3654)	2	0.0728	-0.0725	-0.0801	0.867
IRAK1 (GeneID 3654)	3	0.118 (active)	-0.107	-0.0424	0.856
IRAK1 (GeneID 3654)	4	0.323 (active)	-0.0118	0.0272	0.496
MAP3K8 (GeneID 1326)	1	-0.179	-0.109	-0.469	1
MAP3K8 (GeneID 1326)	2	0.199 (active)	0.23	0.127	0.888
MAP3K8 (GeneID 1326)	3	-0.258 (active)	0.257	0.0874	0.834
MAP3K8 (GeneID 1326)	4	-0.101	-0.109	-0.118	1

Not a retest: 9 of the entries above.
Target gene	reagent	synergy score with BYL719	synergy score with cetuximab	synergy score with trametinib	viability, siRNA alone in vehicle (fraction of control)
SYK (GeneID 6850)	4	-0.516	-0.182	-0.149	0.573
MARK3 (GeneID 4140)	1	-0.179	-0.109	0.0124	1
MARK3 (GeneID 4140)	2	-0.0468 (active)	-0.0834	0.225	0.867
MARK3 (GeneID 4140)	3	-0.193	-0.263	-0.0255	0.715
MARK3 (GeneID 4140)	4	-0.612	-0.461	-0.077	0.443
CHD4 (GeneID 1108)	1	-0.206	-0.252	-0.0343	0.421
CHD4 (GeneID 1108)	2	0.0607	-0.0669	-0.00744	0.348
CHD4 (GeneID 1108)	3	-0.333	-0.322	-0.21	0.704
CHD4 (GeneID 1108)	4	-0.111	0.0897	-0.0419	1
